Assay results taken from article PMC9346516.
Results are given in words; binding and its absence hold for the method and conditions named. In cells and extracts the contact can be indirect. Here binding means that the protein was enriched with, or labelled near, the bait; the list need not be complete.

B1: LRCH3 (protein, UniProt Q96II8 1-777)
chain: MAAAGLVAVAAAAEYSGTVASGGNLPGVHCGPSSGAGPGFGPGSWSRSLDRALEEAAVTGVLSLSGRKLREFPRGAANHDLTDTTRADLSRNRLSEIPIEACHFVSLENLNLYQNCIRYIPEAILNLQALTFLNISRNQLSTLPVHLCNLPLKVLIASNNKLVSLPEEIGHLRHLMELDVSCNEIQTIPSQIGNLEALRDLNVRRNHLVHLPEELAELPLIRLDFSCNKITTIPVCYRNLRHLQTITLDNNPLQSPPAQICIKGKVHIFKYLNIQACKIAPDLPDYDRRPLGFGSCHEELYSSRPYGALDSGFNSVDSGDKRWSGNEPTDEFSDLPLRVAEITKEQRLRRESQYQENRGSLVVTNGGVEHDLDQIDYIDSCTAEEEEAEVRQPKGPDPDSLSSQFMAYIEQRRISHEGSPVKPVAIREFQKTEDMRRYLHQNRVPAEPSSLLSLSASHNQLSHTDLELHQRREQLVERTRREAQLAALQYEEEKIRTKQIQRDAVLDFVKQKASQSPQKQHPLLDGVDGECPFPSRRSQHTDDSALCMSLSGLNQVGCAATLPHSSAFTPLKSDDRPNALLSSPATETVHHSPAYSFPAAIQRNQPQRPESFLFRAGVRAETNKGHASPLPPSAAPTTDSTDSITGQNSRQREEELELIDQLRKHIEYRLKVSLPCDLGAALTDGVVLCHLANHVRPRSVPSIHVPSPAVPKLTMAKCRRNVENFLEACRKIGVPQEQLCLPLHILEEKGLSQVAVTVQALLELAPPKQQQHQLSAV
B2: HIP1 (protein, UniProt O00291 1-1037)
chain: MDRMASSMKQVPNPLPKVLSRRGVGAGLEAAERESFERTQTVSINKAINTQEVAVKEKHARTCILGTHHEKGAQTFWSVVNRLPLSSNAVLCWKFCHVFHKLLRDGHPNVLKDSLRYRNELSDMSRMWGHLSEGYGQLCSIYLKLLRTKMEYHTKNPRFPGNLQMSDRQLDEAGESDVNNFFQLTVEMFDYLECELNLFQTVFNSLDMSRSVSVTAAGQCRLAPLIQVILDCSHLYDYTVKLLFKLHSCLPADTLQGHRDRFMEQFTKLKDLFYRSSNLQYFKRLIQIPQLPENPPNFLRASALSEHISPVVVIPAEASSPDSEPVLEKDDLMDMDASQQNLFDNKFDDIFGSSFSSDPFNFNSQNGVNKDEKDHLIERLYREISGLKAQLENMKTESQRVVLQLKGHVSELEADLAEQQHLRQQAADDCEFLRAELDELRRQREDTEKAQRSLSEIERKAQANEQRYSKLKEKYSELVQNHADLLRKNAEVTKQVSMARQAQVDLEREKKELEDSLERISDQGQRKTQEQLEVLESLKQELATSQRELQVLQGSLETSAQSEANWAAEFAELEKERDSLVSGAAHREEELSALRKELQDTQLKLASTEESMCQLAKDQRKMLLVGSRKAAEQVIQDALNQLEEPPLISCAGSADHLLSTVTSISSCIEQLEKSWSQYLACPEDISGLLHSITLLAHLTSDAIAHGATTCLRAPPEPADSLTEACKQYGRETLAYLASLEEEGSLENADSTAMRNCLSKIKAIGEELLPRGLDIKQEELGDLVDKEMAATSAAIETATARIEEMLSKSRAGDTGVKLEVNERILGCCTSLMQAIQVLIVASKDLQREIVESGRGTASPKEFYAKNSRWTEGLISASKAVGWGATVMVDAADLVVQGRGKFEELMVCSHEIAASTAQLVAASKVKADKDSPNLAQLQQASRGVNQATAGVVASTISGKSQIEETDNMDFSSMTLTQIKRQEMDSQVRVLELENELQKERQKLGELRKKHYELAGVAEGWEEGTEASPPTLQEVVTEKE
B3: CLTA (protein, UniProt P09496 1-248)
chain: MAELDPFGAPAGAPGGPALGNGVAGAGEEDPAAAFLAQQESEIAGIENDEAFAILDGGAPGPQPHGEPPGGPDAVDGVMNGEYYQESNGPTDSYAAISQVDRLQSEPESIRKWREEQMERLEALDANSRKQEAEWKEKAIKELEEWYARQDEQLQKTKANNRVADEAFYKQPFADVIGYVTNINHPCYSLEQAAEEAFVNDIDESSPGTEWERVARLCDFNPKSSKQAKDVSRMRSVLISLKQAPLVH
B4: ankycorbin (protein, UniProt Q9P0K7 1-980)
chain: MKSLKAKFRKSDTNEWNKNDDRLLQAVENGDAEKVASLLGKKGASATKHDSEGKTAFHLAAAKGHVECLRVMITHGVDVTAQDTTGHSALHLAAKNSHHECIRKLLQSKCPAESVDSSGKTALHYAAAQGCLQAVQILCEHKSPINLKDLDGNIPLLLAVQNGHSEICHFLLDHGADVNSRNKSGRTALMLACEIGSSNAVEALIKKGADLNLVDSLGYNALHYSKLSENAGIQSLLLSKISQDADLKTPTKPKQHDQVSKISSERSGTPKKRKAPPPPISPTQLSDVSSPRSITSTPLSGKESVFFAEPPFKAEISSIRENKDRLSDSTTGADSLLDISSEADQQDLLSLLQAKVASLTLHNKELQDKLQAKSPKEAEADLSFDSYHSTQTDLGPSLGKPGETSPPDSKSSPSVLIHSLGKSTTDNDVRIQQLQEILQDLQKRLESSEAERKQLQVELQSRRAELVCLNNTEISENSSDLSQKLKETQSKYEEAMKEVLSVQKQMKLGLVSPESMDNYSHFHELRVTEEEINVLKQDLQNALEESERNKEKVRELEEKLVEREKGTVIKPPVEEYEEMKSSYCSVIENMNKEKAFLFEKYQEAQEEIMKLKDTLKSQMTQEASDEAEDMKEAMNRMIDELNKQVSELSQLYKEAQAELEDYRKRKSLEDVTAEYIHKAEHEKLMQLTNVSRAKAEDALSEMKSQYSKVLNELTQLKQLVDAQKENSVSITEHLQVITTLRTAAKEMEEKISNLKEHLASKEVEVAKLEKQLLEEKAAMTDAMVPRSSYEKLQSSLESEVSVLASKLKESVKEKEKVHSEVVQIRSEVSQVKREKENIQTLLKSKEQEVNELLQKFQQAQEELAEMKRYAESSSKLEEDKDKKINEMSKEVTKLKEALNSLSQLSYSTSSSKRQSQQLEALQQQVKQLQNQLAECKKQHQEVISVYRMHLLYAVQGQMDEDVQKVLKQILTMCKNQSQKK
B5: STON2 (protein, UniProt Q8WXE9 1-905)
chain: MTTLDHVIATHQSEWVSFNEEPPFPAHSQGGTEEHLPGLSSSPDQSESSSGENHVVDGGSQDHSHSEQDDSSEKMGLISEAASPPGSPEQPPPDLASAISNWVQFEDDTPWASTSPPHQETAETALPLTMPCWTCPSFDSLGRCPLTSESSWTTHSEDTSSPSFGCSYTDLQLINAEEQTSGQASGADSTDNSSSLQEDEEVEMEAISWQASSPAMNGHPAPPVTSARFPSWVTFDDNEVSCPLPPVTSPLKPNTPPSASVIPDVPYNSMGSFKKRDRPKSTLMNFSKVQKLDISSLNRTPSVTEASPWRATNPFLNETLQDVQPSPINPFSAFFEEQERRSQNSSISSTTGKSQRDSLIVIYQDAISFDDSSKTQSHSDAVEKLKQLQIDDPDHFGSATLPDDDPVAWIELDAHPPGSARSQPRDGWPMMLRIPEKKNIMSSRHWGPIFVKLTDTGYLQLYYEQGLEKPFREFKLEICHEISEPRLQNYDENGRIHSLRIDRVTYKEKKKYQPKPAVAHTAEREQVIKLGTTNYDDFLSFIHAVQDRLMDLPVLSMDLSTVGLNYLEEEITVDVRDEFSGIVSKGDNQILQHHVLTRIHILSFLSGLAECRLGLNDILVKGNEIVLRQDIMPTTTTKWIKLHECRFHGCVDEDVFHNSRVILFNPLDACRFELMRFRTVFAEKTLPFTLRTATSVNGAEVEVQSWLRMSTGFSANRDPLTQVPCENVMIRYPVPSEWVKNFRRESVLGEKSLKAKVNRGASFGSTSVSGSEPVMRVTLGTAKYEHAFNSIVWRINRLPDKNSASGHPHCFFCHLELGSDREVPSRFANHVNVEFSMPTTSASKASVRSISVEDKTDVRKWVNYSAHYSYQVALGSIWLMLPTPFVHPTTLPLLFLLAMLTMFAW
B6: DAB2 (protein, UniProt P98082 1-770)
chain: MSNEVETSATNGQPDQQAAPKAPSKKEKKKGPEKTDEYLLARFKGDGVKYKAKLIGIDDVPDARGDKMSQDSMMKLKGMAAAGRSQGQHKQRIWVNISLSGIKIIDEKTGVIEHEHPVNKISFIARDVTDNRAFGYVCGGEGQHQFFAIKTGQQAEPLVVDLKDLFQVIYNVKKKEEEKKKIEEASKAVENGSEALMILDDQTNKLKSGVDQMDLFGDMSTPPDLNSPTESKDILLVDLNSEIDTNQNSLRENPFLTNGITSCSLPRPTPQASFLPENAFSANLNFFPTPNPDPFRDDPFTQPDQSTPSSFDSLKSPDQKKENSSSSSTPLSNGPLNGDVDYFGQQFDQISNRTGKQEAQAGPWPFSSSQTQPAVRTQNGVSEREQNGFSVKSSPNPFVGSPPKGLSIQNGVKQDLESSVQSSPHDSIAIIPPPQSTKPGRGRRTAKSSANDLLASDIFAPPVSEPSGQASPTGQPTALQPNPLDLFKTSAPAPVGPLVGLGGVTVTLPQAGPWNTASLVFNQSPSMAPGAMMGGQPSGFSQPVIFGTSPAVSGWNQPSPFAASTPPPVPVVWGPSASVAPNAWSTTSPLGNPFQSNIFPAPAVSTQPPSMHSSLLVTPPQPPPRAGPPKDISSDAFTALDPLGDKEIKDVKEMFKDFQLRQPPAVPARKGEQTSSGTLSAFASYFNSKVGIPQENADHDDFDANQLLNKINEPPKPAPRQVSLPVTKSTDNAFENPFFKDSFGSSQASVASSQPVSSEMYRDPFGNPFA

These binders were tested against ARAP1 (human (endogenous in fetal RPE cells)) (assay: affinity purification with mass spectrometry; goat anti-ARAP1 (Abcam ab5912) cross-linked with BS3 to Protein G magnetic beads; NP-40 lysate of cultured human fetal RPE cells, pre-cleared on beads; normal goat IgG immunoprecipitation in parallel as control; LC-MS/MS of five independent samples).

binding | Binder
binds | B1
binds | B2
binds | B3
binds | B4
binds | B5
binds | B6
